# Measured values from PubChem BioAssay AID266 (DTP/NCI, 2004).
# The list is a part of this screen's results and no random one: it is rich in T/C values a quarter to a half above the control, in often repeated tests (any T/C) and in doses without a T/C. Further doses and runs are listed elsewhere. T/C: endpoint of the treated group in % of that of the vehicle group. Schedules are NCI's codes, read here as Q, the interval in days (D) or hours (H), X, the number of doses. Some entries give survivors of the animals treated and no T/C: the source holds a T/C of zero for them, seemingly a mark for toxic or unscored doses. Counts of survivors are from the toxicity check (mostly the fifth day) where no day follows; animals may have died later.
# Tested on: Nude mice, LX-1 lung xenograft intrarenal, tumor weight T/C
# Assay: NCI In Vivo Anticancer Drug Screen. Data for tumor model Human Lung LX-1 Xenograft (intrarenal inoculation) in NU/NU BALB/C (nude) mice
# Conditions: T/C endpoint: mean tumor weight change, higher T/C = larger tumour; for T/C: evaluated on day 11
# Protocol: The antitumor activity of compounds was measured in mice bearing transplantable tumors. Survival or tumor size were measured and the results are expressed as the measurement made in the treated group (T) divided by the measurement made in the vehicle treated control group (C). The tumor model used in this assay is Human Lung LX-1 Xenograft (intrarenal inoculation) in NU/NU BALB/C (nude) mice
smiles,measurement,setting,value
Nc1ncnc2c(C3OC(CO)C(O)C3O)[nH]nc12 (configuration not stated),survivor count,"dose: 300.0 mg/kg/injection, schedule: Q04DX003 (sc), vehicle: suspension in saline",0 of 6 on day 11
same,survivor count,"dose: 600.0 mg/kg/injection, schedule: Q04DX003 (sc), vehicle: suspension in saline",0 of 6 on day 11
C[Si](C)(C)O/C=C1\CCCCC1=O,T/C,"dose: 400.0 mg/kg/injection, schedule: Q04DX003 (sc), vehicle: saline with Tween-80",142 % of control
same,T/C,"dose: 800.0 mg/kg/injection, schedule: Q04DX003 (sc), vehicle: saline with Tween-80",142 % of control
CC[C@H]1CN2CCc3cc(OC)c(OC)cc3[C@@H]2C[C@@H]1C[C@H]1NCCc2cc(OC)c(OC)cc21,survivor count,"dose: 8.0 mg/kg/injection, schedule: Q01DX010 (sc), vehicle: saline",0 of 3 on day 11
same,survivor count,"dose: 16.0 mg/kg/injection, schedule: Q01DX010 (sc), vehicle: saline",0 of 3 on day 11
same,survivor count,"dose: 32.0 mg/kg/injection, schedule: Q01DX010 (sc), vehicle: saline",0 of 3 on day 11
O=C1NC(=O)NC(C(=O)O)N1,T/C,"dose: 800.0 mg/kg/injection, schedule: Q04DX003 (sc), vehicle: Klucel (hydroxypropylcellulose) (HPC)",140 % of control
CC(Oc1ccccc1-c1ccccc1)C(=O)N(C)C (configuration not stated),T/C,"dose: 300.0 mg/kg/injection, schedule: Q04DX003 (sc), vehicle: saline with Tween-80",149 % of control
CC1CN1C(=O)NCCCCCCNC(=O)N1CC1C (configuration not stated),survivor count,"dose: 60.0 mg/kg/injection, schedule: Q04DX003 (sc), vehicle: Klucel (hydroxypropylcellulose) (HPC)",0 of 6 on day 11
same,survivor count,"dose: 80.0 mg/kg/injection, schedule: Q04DX003 (sc), vehicle: Klucel (hydroxypropylcellulose) (HPC)",0 of 6 on day 11
same,survivor count,"dose: 120.0 mg/kg/injection, schedule: Q04DX003 (sc), vehicle: Klucel (hydroxypropylcellulose) (HPC)",0 of 6 on day 11
same,survivor count,"dose: 160.0 mg/kg/injection, schedule: Q04DX003 (sc), vehicle: Klucel (hydroxypropylcellulose) (HPC)",0 of 6 on day 11
CN(N=O)C(=O)N[C@@H](C=O)[C@@H](O)[C@H](O)[C@H](O)CO,survivor count,"dose: 600.0 mg/kg/injection, schedule: Q04DX003 (sc), vehicle: saline",0 of 6 on day 11
same,survivor count,"dose: 1200.0 mg/kg/injection, schedule: Q04DX003 (sc), vehicle: saline",0 of 6 on day 11
N#Cc1cn(C2OC(CO)C(O)C2O)c2ncnc(N)c12 (configuration not stated),T/C,"dose: 0.5 mg/kg/injection, schedule: Q01DX010 (sc), vehicle: saline",143 % of control
same,survivor count,"dose: 4.0 mg/kg/injection, schedule: Q01DX010 (sc), vehicle: saline",0 of 3 on day 11
